PubChem BioAssay AID1259308, NCATS, 2017

- Test: 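Knock-downs that increase output of a recombinant reporter protein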 (primary screen)
- Cells: human HEK293 embryonic kidney cells stably expressing firefly luciferase (HEK-CMV-Luc2-Hygro)
- Reagent: single siRNA against human genes, 0.8 pmol siRNA per well
- Time to read-out: 72 h
- Measurement: 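Luciferase light (ONE-Glo) measured on one replicate plate set and viability (CellTiter-Glo) on the other, scaled to a negative control siRNA, with robust z-scores and luciferase per cell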
- Direction: total luciferase, z-score and total luciferase, % of control: higher = more reporter protein produced; luciferase per cell, z-score: higher = more reporter output per viable cell
- Call rule: 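An siRNA counts as active if its total luciferase robust z-score exceeds 3; genes with two or more such siRNAs out of three were retested with fresh siRNAs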
- Calls: active = raised luciferase; inactive = no rise
The deposit covers about 59,000 reagents; below is a part drawn at random. Of all reagents, about 1,510 (2.6%) are marked active. 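Calls use total luciferase alone and ignore viability, so some active siRNAs may act by altering cell number.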 A number with no mark means an inactive call. Reagents against one gene are numbered here. Not all columns of the deposit are shown. No sequences are given here.

no.	gene	siRNA no.	total luciferase, z-score	total luciferase, % of control	luciferase per cell, z-score
1	MAK	1	0.168	85.2	-0.0205
2	MAK	2	0.417	90.2	0.0979
3	MAK	3	-0.703	67.9	-1.16
4	KLF1	1	-0.319	75.5	0.26
5	KLF1	2	-0.873	64.5	-0.7
6	KLF1	3	1.18	105	1.48
7	TUSC2	1	0.516	92.1	0.225
8	TUSC2	2	0.751	96.8	0.959
9	TUSC2	3	0.687	95.6	0.992
10	CRHR2	1	-0.168	78.5	0.345
11	CRHR2	2	2.99	141	2.66
12	CRHR2	3	-0.44	73.1	-0.337
13	C1orf216	1	0.187	85.6	0.0775
14	C1orf216	2	-2.22	37.8	-0.695
15	C1orf216	3	-0.614	69.7	-0.0589
16	GPR27	1	3.32 (active)	148	1.87
17	GPR27	2	0.105	84	0.0261
18	GPR27	3	0.684	95.5	0.289
19	CDHR5	1	1.68	115	1.27
20	CDHR5	2	-2.7	28.2	-1.9
21	CDHR5	3	-1.3	56	-1.51
22	SAA2	1	1.27	107	1.08
23	SAA2	2	-0.455	72.8	-0.397
24	SAA2	3	0.268	87.2	-0.601
25	OR6X1	1	0.0589	83.1	-0.248
26	OR6X1	2	-0.0103	81.7	0.867
27	OR6X1	3	-0.682	68.3	0.0265
28	CKAP4	1	2.5	132	3.06
29	CKAP4	2	0.00754	82	0.341
30	CKAP4	3	-0.162	78.7	-0.785
31	CKAP4	4	0.312	88.1	0.173
32	CKAP4	5	-0.497	72	-0.385
33	CKAP4	6	-0.374	74.5	-0.104
34	DPPA2	1	0.704	95.9	0.913
35	DPPA2	2	0.31	88	0.377
36	DPPA2	3	-1.54	51.2	-2.21
37	ABHD3	1	2.12	124	2.74
38	ABHD3	2	-0.847	65	-0.592
39	ABHD3	3	-1.16	58.9	-1.81
40	S100A7A	1	0.683	95.5	0.841
41	S100A7A	2	0.949	101	0.702
42	S100A7A	3	-0.63	69.3	-0.93
43	CCNJL	1	2.11	124	3.4
44	CCNJL	2	-1.83	45.5	-1.4
45	CCNJL	3	-0.189	78.1	-0.224
46	OTUD6B	1	0.755	96.9	0.447
47	OTUD6B	2	0.0972	83.8	0.623
48	OTUD6B	3	-0.274	76.4	0.0179

Continued; the last 7 above are carried over.
no.	gene	siRNA no.	total luciferase, z-score	total luciferase, % of control	luciferase per cell, z-score
42	S100A7A	3	-0.63	69.3	-0.93
43	CCNJL	1	2.11	124	3.4
44	CCNJL	2	-1.83	45.5	-1.4
45	CCNJL	3	-0.189	78.1	-0.224
46	OTUD6B	1	0.755	96.9	0.447
47	OTUD6B	2	0.0972	83.8	0.623
48	OTUD6B	3	-0.274	76.4	0.0179
49	KLHL22	1	0.721	96.2	0.165
50	KLHL22	2	-0.299	75.9	-0.824
51	KLHL22	3	-0.0794	80.3	-0.478
52	UBXN2A	1	-0.807	65.8	-1.06
53	UBXN2A	2	-1.14	59.2	-1.1
54	UBXN2A	3	1.81	118	1.12
55	ACSBG2	1	2.15	125	1.2
56	ACSBG2	2	1.24	106	0.239
57	ACSBG2	3	0.56	93	0.176
58	NUBP1	1	-0.387	74.2	-0.821
59	NUBP1	2	-0.464	72.7	-0.514
60	NUBP1	3	0.11	84.1	-0.59
61	DEFB129	1	-0.963	62.7	0.147
62	DEFB129	2	2.65	135	2.53
63	DEFB129	3	1.05	103	1.32
64	DDHD2	1	1.15	105	1.88
65	DDHD2	2	0.669	95.2	0.545
66	DDHD2	3	-0.38	74.3	-1.17
67	PTGER4	1	1.37	109	1.67
68	PTGER4	2	-0.00338	81.8	-0.693
69	PTGER4	3	0.136	84.6	-0.479
70	USP19	1	0.325	88.4	-0.573
71	USP19	2	0.623	94.3	0.239
72	USP19	3	0.779	97.4	0.988
73	LPAR6	1	0.257	87	0.0637
74	LPAR6	2	0.25	86.9	0.242
75	LPAR6	3	-0.148	78.9	-0.107
